Some of the results follow.
Columns and labels:
Assay in all cases: log2 fold change, soluble protein after heating vs DMSO (PISA); higher = thermal stabilisation; K562 cells, 10 uM, 30 min; active = over 0.2 and 3.5 SD of the protein, either way, in both replicates (recomputed)
[1] = compound: C#Cc1cccc(Nc2ncnc3cc(OCCOC)c(OCCOC)cc23)c1 [erlotinib]
Outline: (§1)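 Values are thermal stability changes relative to control samples and are taken from duplicates. They are stated as log2 fold changes. Before quantification by TMTpro 16plex LC-MS/MS with equalised channel sums, K562 cells at 2×10^6 cells/mL were treated with 10 μM compound for 30 min, heated in aliquots for 3 min across 48°C-58°C, pooled, extracted in PBS with 0.5% NP-40 at 4°C, and centrifuged at 21,000xg for 90 min to give the soluble supernatant.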

Sequences of proteins named here, by UniProt entry; tags and fusion partners are left off. A change or cut given only in a name is not applied to a line headed by its entry.
UniProt Q8IY33: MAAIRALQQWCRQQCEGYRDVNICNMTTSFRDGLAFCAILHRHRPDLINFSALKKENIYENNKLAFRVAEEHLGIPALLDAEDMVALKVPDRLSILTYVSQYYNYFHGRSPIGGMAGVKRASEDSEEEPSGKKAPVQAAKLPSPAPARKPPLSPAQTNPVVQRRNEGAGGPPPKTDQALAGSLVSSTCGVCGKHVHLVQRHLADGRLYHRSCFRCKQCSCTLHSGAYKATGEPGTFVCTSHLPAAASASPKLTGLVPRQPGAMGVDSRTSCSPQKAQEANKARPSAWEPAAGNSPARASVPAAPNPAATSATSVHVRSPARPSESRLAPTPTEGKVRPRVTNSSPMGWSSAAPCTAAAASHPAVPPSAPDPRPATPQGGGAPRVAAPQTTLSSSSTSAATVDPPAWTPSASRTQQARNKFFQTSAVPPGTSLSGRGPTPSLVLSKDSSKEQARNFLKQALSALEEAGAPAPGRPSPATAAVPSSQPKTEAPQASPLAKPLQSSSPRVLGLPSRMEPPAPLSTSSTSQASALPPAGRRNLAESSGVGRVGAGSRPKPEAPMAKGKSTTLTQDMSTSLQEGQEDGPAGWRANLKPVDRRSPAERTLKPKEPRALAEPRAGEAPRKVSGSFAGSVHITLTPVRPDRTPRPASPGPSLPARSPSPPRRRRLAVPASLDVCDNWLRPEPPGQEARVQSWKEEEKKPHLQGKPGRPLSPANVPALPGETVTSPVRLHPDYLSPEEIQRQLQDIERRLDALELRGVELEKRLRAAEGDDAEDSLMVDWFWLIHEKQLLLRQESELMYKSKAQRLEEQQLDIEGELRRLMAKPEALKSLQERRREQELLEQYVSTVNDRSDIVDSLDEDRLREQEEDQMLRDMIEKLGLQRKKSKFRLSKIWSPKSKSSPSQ
UniProt P29372, whole entry, looked up: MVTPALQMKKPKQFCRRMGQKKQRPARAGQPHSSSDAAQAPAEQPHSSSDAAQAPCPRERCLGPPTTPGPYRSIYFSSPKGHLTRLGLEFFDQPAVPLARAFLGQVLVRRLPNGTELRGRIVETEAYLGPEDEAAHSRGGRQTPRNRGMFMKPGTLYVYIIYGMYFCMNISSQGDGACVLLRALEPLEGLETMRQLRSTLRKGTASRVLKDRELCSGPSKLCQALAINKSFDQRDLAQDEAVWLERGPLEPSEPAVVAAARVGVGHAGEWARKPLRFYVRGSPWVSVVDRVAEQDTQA
UniProt Q7RTP6, whole entry, looked up: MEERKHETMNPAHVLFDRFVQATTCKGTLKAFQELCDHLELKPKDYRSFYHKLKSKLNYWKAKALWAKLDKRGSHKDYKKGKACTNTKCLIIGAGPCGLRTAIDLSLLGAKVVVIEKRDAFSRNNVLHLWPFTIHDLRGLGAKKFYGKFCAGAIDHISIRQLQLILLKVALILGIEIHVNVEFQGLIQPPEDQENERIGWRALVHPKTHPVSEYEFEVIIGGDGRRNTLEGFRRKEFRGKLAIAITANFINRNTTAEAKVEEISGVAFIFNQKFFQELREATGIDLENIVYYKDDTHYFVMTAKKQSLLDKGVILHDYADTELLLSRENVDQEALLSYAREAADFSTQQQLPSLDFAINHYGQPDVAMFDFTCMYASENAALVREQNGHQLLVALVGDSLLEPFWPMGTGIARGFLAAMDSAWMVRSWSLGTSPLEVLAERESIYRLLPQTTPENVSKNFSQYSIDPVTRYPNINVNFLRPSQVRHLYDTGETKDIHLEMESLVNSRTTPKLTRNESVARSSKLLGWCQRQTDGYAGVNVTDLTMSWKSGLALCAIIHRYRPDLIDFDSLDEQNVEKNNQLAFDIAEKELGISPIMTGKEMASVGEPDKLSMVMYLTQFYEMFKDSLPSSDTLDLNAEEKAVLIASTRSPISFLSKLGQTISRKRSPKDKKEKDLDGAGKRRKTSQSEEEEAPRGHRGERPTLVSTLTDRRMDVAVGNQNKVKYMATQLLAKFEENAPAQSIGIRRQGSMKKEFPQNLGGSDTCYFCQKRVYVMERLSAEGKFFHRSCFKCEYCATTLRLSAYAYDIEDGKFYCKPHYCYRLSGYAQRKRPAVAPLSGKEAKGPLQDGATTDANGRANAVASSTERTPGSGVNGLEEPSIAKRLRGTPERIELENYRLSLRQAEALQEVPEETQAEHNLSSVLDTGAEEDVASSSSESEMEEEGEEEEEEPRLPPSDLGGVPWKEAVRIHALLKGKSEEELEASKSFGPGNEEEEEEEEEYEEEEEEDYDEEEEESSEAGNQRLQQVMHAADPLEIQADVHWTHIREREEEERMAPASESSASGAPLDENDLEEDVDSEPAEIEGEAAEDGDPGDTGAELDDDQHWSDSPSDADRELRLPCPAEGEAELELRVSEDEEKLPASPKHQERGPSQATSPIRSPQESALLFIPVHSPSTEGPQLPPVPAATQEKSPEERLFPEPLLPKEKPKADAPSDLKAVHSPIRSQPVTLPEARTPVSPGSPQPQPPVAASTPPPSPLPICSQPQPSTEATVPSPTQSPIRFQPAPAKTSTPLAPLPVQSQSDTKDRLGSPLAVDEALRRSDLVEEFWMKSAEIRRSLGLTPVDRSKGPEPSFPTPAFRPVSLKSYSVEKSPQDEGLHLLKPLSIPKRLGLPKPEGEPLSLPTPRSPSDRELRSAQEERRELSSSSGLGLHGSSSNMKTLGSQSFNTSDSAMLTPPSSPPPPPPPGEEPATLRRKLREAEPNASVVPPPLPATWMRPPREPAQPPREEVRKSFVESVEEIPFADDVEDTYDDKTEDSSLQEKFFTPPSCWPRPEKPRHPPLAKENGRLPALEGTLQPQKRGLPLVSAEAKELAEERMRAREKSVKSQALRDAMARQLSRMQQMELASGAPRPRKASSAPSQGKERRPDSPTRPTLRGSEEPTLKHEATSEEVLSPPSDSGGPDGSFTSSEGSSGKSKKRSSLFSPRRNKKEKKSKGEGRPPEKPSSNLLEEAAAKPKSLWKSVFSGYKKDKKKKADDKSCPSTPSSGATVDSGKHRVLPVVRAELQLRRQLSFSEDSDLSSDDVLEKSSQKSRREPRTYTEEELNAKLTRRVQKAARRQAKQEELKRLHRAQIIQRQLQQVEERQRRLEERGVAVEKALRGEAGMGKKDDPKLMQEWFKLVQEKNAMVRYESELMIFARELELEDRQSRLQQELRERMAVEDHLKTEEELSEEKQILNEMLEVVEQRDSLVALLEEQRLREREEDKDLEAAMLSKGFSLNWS
UniProt Q9BUB5: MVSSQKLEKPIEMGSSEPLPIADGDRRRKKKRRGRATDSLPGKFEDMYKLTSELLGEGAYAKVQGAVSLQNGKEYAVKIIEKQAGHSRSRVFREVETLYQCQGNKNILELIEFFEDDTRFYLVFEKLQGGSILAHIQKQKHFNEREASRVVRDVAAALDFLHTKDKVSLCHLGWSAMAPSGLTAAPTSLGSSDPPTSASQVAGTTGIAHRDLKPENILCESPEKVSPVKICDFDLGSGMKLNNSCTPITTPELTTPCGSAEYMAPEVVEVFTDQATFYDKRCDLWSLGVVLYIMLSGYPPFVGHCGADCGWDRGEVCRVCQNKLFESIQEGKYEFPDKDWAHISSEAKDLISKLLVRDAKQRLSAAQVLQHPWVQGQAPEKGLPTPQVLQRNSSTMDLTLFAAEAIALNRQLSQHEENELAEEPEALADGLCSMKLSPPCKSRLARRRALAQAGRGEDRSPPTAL
UniProt Q9NV56, whole entry, looked up: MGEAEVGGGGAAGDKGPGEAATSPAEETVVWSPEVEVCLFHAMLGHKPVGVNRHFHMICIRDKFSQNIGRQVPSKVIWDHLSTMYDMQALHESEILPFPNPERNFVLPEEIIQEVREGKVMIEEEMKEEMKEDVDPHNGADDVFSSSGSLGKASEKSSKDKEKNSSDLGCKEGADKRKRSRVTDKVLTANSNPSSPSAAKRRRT
UniProt O95822: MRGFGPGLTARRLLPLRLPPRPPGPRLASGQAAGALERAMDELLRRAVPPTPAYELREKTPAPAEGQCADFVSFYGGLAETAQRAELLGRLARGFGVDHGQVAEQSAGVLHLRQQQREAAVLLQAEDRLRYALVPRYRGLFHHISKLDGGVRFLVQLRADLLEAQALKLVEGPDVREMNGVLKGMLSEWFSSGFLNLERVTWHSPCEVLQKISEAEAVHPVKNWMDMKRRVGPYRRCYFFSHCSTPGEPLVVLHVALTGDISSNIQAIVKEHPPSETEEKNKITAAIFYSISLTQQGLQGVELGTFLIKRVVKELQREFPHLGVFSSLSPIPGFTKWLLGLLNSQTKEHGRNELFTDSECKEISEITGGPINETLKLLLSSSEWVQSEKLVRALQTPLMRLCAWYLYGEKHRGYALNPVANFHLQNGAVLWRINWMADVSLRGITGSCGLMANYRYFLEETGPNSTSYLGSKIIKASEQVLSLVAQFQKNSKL
UniProt Q8N4V1: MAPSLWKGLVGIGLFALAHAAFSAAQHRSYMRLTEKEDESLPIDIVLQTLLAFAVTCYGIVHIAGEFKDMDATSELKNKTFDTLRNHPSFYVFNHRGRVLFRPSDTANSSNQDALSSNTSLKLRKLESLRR
UniProt Q9BV20: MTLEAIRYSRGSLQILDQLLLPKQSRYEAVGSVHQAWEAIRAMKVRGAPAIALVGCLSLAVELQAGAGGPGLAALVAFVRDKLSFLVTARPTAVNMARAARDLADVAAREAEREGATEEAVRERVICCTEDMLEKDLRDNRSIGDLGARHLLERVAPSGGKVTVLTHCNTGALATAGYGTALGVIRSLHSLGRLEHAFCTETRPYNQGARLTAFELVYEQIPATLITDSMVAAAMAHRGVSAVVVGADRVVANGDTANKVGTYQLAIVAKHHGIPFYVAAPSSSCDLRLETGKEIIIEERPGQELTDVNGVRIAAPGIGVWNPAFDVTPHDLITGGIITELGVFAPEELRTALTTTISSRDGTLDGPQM

[2] = compound: C/C(=N\NC(=O)C1=CC(=CC=C1)S(=O)(=O)N2CCOCC2)/C3=C(C=CC(=C3)Cl)O
Outline: as §1

[3] = compound: C1=CC(=C(C=C1Cl)C2=NC3=NC=CN=C3C(=N2)NC4=CC=NC=C4)F
Outline: as §1

[4] = compound: C1=CC(=CC=C1C2=NC3=C(N2)C=C(C=C3)C(=O)N)OC4=CC=C(C=C4)Cl
Outline: as §1

[5] = compound: C1=CC2=C(C=CC(=C2)/C=C\3/C(=O)NC(=NCC4=CC=CS4)S3)N=C1
Outline: as §1

[6] = compound: C1=CC2=NC=CN=C2C=C1/C=C/3\C(=O)NC(=O)S3
Outline: as §1

[7] = compound: C1=CC=C(C=C1)C2=NC(=C(N2)C3=CC=NC=C3)C4=CC(=C(C=C4)Cl)O
Outline: as §1

[8] = compound: C1=CC=C2C(=C1)C3=NNC4=CC=CC(=C43)C2=O
Outline: as §1

[9] = compound: C1CCN(C1)C(=O)NC2=CC=CC(=C2)NC3=NC=C(C(=N3)NCCC4=CN=CN4)Br
Outline: as §1

[10] = compound: C1CN(CCC1(CC2=CC=C(C=C2)Cl)N)C3=NC=NC4=C3C=CN4
Outline: as §1

Measured: log2 fold change

MRPL22 (UniProt Q9NWU5)
inactive: [1] 0.001 | [2] -0.056 | [3] -0.189 | [4] 0.085 | [5] 0.033 | [6] -0.086 | [7] 0.021 | [8] 0.119 | [9] -0.042 | [10] -0.183

MICALL2 (UniProt Q8IY33)
inactive: [1] 0.233 | [2] 0.017 | [3] 0.033 | [4] 0.059 | [5] 0.033 | [6] 0.038 | [7] 0.015 | [8] 0.045 | [9] -0.02 | [10] 0.024

MPG (UniProt P29372)
inactive: [1] -0.016 | [2] -0.07 | [3] -0.113 | [4] -0.002 | [5] -0.004 | [6] -0.008 | [7] 0.083 | [8] -0.012 | [9] -0.003 | [10] -0.04

MRPL19 (UniProt P49406)
inactive: [1] -0.277 | [2] -0.039 | [3] -0.166 | [4] 0.116 | [5] -0.065 | [6] 0.014 | [7] 0.012 | [8] 0.19 | [9] -0.037 | [10] -0.241

MICAL3 (UniProt Q7RTP6)
inactive: [1] 0.067 | [2] -0.049 | [3] 0.008 | [4] -0.001 | [5] 0.112 | [6] -0.013 | [7] -0.113 | [8] -0.003 | [9] 0.073 | [10] -0.005

Copied from the results shown (2 entries):
MICALL2 (UniProt Q8IY33)
inactive: [1] 0.233 | [2] 0.017 | [3] 0.033 | [4] 0.059 | [5] 0.033 | [6] 0.038 | [7] 0.015 | [8] 0.045 | [9] -0.02 | [10] 0.024

MPG (UniProt P29372)
inactive: [1] -0.016 | [2] -0.07 | [3] -0.113 | [4] -0.002 | [5] -0.004 | [6] -0.008 | [7] 0.083 | [8] -0.012 | [9] -0.003 | [10] -0.04

Later entries

MRPL41 (UniProt Q8IXM3)
inactive: [1] -0.204 | [2] -0.137 | [3] -0.19 | [4] 0.052 | [5] -0.092 | [6] -0.053 | [7] -0.041 | [8] 0.162 | [9] 0.005 | [10] -0.221

MKNK1 (UniProt Q9BUB5)
active: [1] 0.305
inactive: [2] 0.09 | [3] -0.05 | [4] 0 | [5] 0.011 | [6] 0.081 | [7] -0.028 | [8] 0.001 | [9] -0.051 | [10] -0.066

MRGBP (UniProt Q9NV56)
inactive: [1] -0.052 | [2] 0.003 | [3] 0.022 | [4] 0.014 | [5] -0.036 | [6] -0.03 | [7] -0.012 | [8] -0.074 | [9] 0.003 | [10] 0.042

MRPL20 (UniProt Q9BYC9)
inactive: [1] -0.106 | [2] -0.14 | [3] -0.153 | [4] 0.065 | [5] -0.056 | [6] 0 | [7] 0.047 | [8] 0.12 | [9] 0.003 | [10] -0.11

MLYCD (UniProt O95822)
inactive: [1] 0.022 | [2] 0.026 | [3] 0.083 | [4] -0.012 | [5] -0.076 | [6] 0.061 | [7] 0.073 | [8] 0.012 | [9] -0.04 | [10] 0.047

MRPL49 (UniProt Q13405)
inactive: [1] -0.05 | [2] -0.238 | [3] -0.059 | [4] 0.022 | [5] 0.06 | [6] 0.022 | [7] -0.104 | [8] 0.024 | [9] -0.008 | [10] -0.044

MRPL15 (UniProt Q9P015)
inactive: [1] -0.12 | [2] -0.101 | [3] -0.166 | [4] 0.07 | [5] 0.001 | [6] -0.012 | [7] 0.025 | [8] 0.073 | [9] -0.015 | [10] -0.159

MMGT1 (UniProt Q8N4V1)
inactive: [1] -0.001 | [2] 0.085 | [3] 0.106 | [4] 0.036 | [5] 0.104 | [6] -0.029 | [7] -0.049 | [8] -0.025 | [9] 0.012 | [10] -0.025

MRI1 (UniProt Q9BV20)
inactive: [1] 0.038 | [2] 0.034 | [3] 0.082 | [4] -0.002 | [5] 0.028 | [6] -0.003 | [7] 0.013 | [8] -0.033 | [9] -0.014 | [10] 0.032

From the supplement of paper PMC10849652
